These results are taken from publication doi:10.1101/2024.01.23.575293.

Chains of the proteins cited; added tags and fusions are not shown. Residues count along the entry.
UniProt Q04207, 19-306: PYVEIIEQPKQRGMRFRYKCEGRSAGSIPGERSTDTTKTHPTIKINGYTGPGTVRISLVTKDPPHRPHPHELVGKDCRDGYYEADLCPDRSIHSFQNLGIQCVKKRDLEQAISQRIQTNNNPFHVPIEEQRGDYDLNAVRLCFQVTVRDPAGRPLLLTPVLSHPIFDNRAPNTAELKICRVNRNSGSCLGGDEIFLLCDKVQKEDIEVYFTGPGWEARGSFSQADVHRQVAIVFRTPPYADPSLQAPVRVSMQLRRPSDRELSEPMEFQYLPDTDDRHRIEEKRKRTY

Construct, isoform or probe ends are uncertain for at least one entry. The comparison behind a weaker result is the experiment's own reference, which may not be listed here. For part of these data: Protein sequences can lack the tags named with them.

For series [1], the target named is T1, p50 RHR (alone: homodimer) (UniProt P25799).
T1 sequence (looked up, limits assumed): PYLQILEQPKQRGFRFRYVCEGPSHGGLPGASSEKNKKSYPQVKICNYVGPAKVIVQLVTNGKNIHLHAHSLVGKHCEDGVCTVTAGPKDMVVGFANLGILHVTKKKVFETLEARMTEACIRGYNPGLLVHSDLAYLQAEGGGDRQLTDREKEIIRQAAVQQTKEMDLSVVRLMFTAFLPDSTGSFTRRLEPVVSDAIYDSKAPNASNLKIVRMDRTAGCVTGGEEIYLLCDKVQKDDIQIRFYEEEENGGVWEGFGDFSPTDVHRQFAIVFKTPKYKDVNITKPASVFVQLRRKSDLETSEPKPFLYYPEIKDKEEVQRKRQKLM
Nature of the series: EMSA. Particulars: p50:p50. A general note: A gel shift assay detects complexes by their altered migration in electrophoresis.

The target of a further series is RelA RHR homodimer (UniProt Q04207). As to the kind of experiment: EMSA.

As for “CCTAACATCAAGAATGTTTTTGATGTTAGG (double strand) [Il12b NF-kB3 probe (Fig S4)]”, the binding result in series [1] is “binds more weakly”. “CCTAACATCACACTAGTTTTTGATGTTAGG (double strand) [Il12b NF-kB4 probe (Fig S4)]”: the binding result (in series [1]; with RelA RHR homodimer) was “binds more weakly” each time.
